According to PMC12040169 (PLOS Biology, 2025):
The other results are listed elsewhere or left out.

The compounds below were run on T1, CTL2-GFP (C. trachomatis L2/434/Bu, GFP-expressing). Settings: bulk GFP, single well; 28.5 h, 10 µM; inhibitor.
T1 construct: L2/434/Bu, GFP-expressing
Parameters: species or system HeLa; Intracellular C. trachomatis growth in HeLa cells, bulk GFP fluorescence relative to DMSO

Compared with `CCC1(CCc2ccccc2)CC(O)=CC(=O)O1` (stereo not drawn) [CBK012790], `CCOC(=O)C1CCCN1Cc1ccccc1` (stereo not drawn) [CBK278278G] is higher in “% of control remaining” value: 102.864% for the first, 106.867% for the second.

Going from `COc1cccc(CC2(C#N)CC2)c1` [CBK003907] to `CCCCNC(=S)N[C@H]1CC[C@@]2(Cc3ccc(OC)cc3)CCN(C)[C@H]2C1` [CBK004258], the “% of control remaining” value rises from 113.727% to 121.366%.

First: Cc1nn(CCC#N)c(C)c1[C@@H]1C=C[C@@H](NC(=O)Nc2ccc(Cl)cc2)C1 [CBK288803]
Second: Cn1c(=O)n(Cc2ccc(Cl)cc2)c2cccnc21 [CBK282333]
The “% of control remaining” value of the first is lower: 72.238% for the first, 124.474% for the second.

Going from `CCc1nc(CC(=O)N2CCOC(c3ccc(F)cc3)C2)cs1` (stereo not drawn) [CBK304083] to `O=C(O)c1cnc2ccc(F)cc2c1N1CCOCC1` [CBK287851], the “% of control remaining” value rises from 112.353% to 115.933%.

Compared with `O=C(Nc1sc2c(c1CN1CCCCCC1)CCCC2)c1ccccc1` [CBK261811], `O=C(NCC(=O)N1CCc2ccccc2C1)C1CCCCC1` [CBK306049] is higher in “% of control remaining” value: 116.944% for the first, 120.191% for the second.

Compared with `O=c1cc(N2CCN(c3ccccc3)CC2)[nH]c(=O)n1-c1ccccc1Cl` [CBK287506], `O=c1[nH]c2ccccc2n1CCCN1CCC(Cc2ccccc2)CC1` [CBK138318] is lower in “% of control remaining” value: 139.192% for the first, 120.957% for the second.

Going from `Cc1ccc2[nH]c3c(c2c1)CCN(C=O)C31CCN(Cc2ccc(OC(F)F)cc2)CC1` [CBK040438] to `O=C(Cc1ccsc1)N1CCC2(CCN(Cc3ccccc3)CC2)C1` [CBK136742], the “% of control remaining” value falls from 130.837% to 125.673%.

First: Nc1ncnc2sc3c(c12)CCN(C(=O)c1ccc2nccnc2c1)C3 [CBK295588]
Second: CC1CCc2sc3ncnc(N4CCN(CCOC(c5ccccc5)c5ccccc5)CC4)c3c2C1 (stereo not drawn) [CBK264884]
The “% of control remaining” value of the first is higher: 142.568% for the first, 100% for the second.

Compared with `Cn1c(C2CC(=O)N(c3ccc(Cl)cc3)C2)nc2ccccc21` (stereo not drawn) [CBK287783], `O=C(O)CCC(=O)Nc1ccccc1Sc1ccc(Cl)cc1` [CBK287015] is lower in “% of control remaining” value: 124.245% for the first, 114.103% for the second.

Compared with `Cc1ccc(N2C(=O)N[C@@H]3CCN(C(=O)c4ccc(C(C)(C)C)cc4)[C@@H]3C2=O)cc1` [CBK289284], `Cc1ccc(S(=O)(=O)N(C)c2c(C)ccc(S(=O)(=O)N3CCN(C)CC3)c2C)cc1` [CBK265642] is lower in “% of control remaining” value: 133.976% for the first, 122.738% for the second.

Going from `CN(C)CCCNC(=S)NC(=O)c1ccccc1` [CBK265317] to `O=C(NC(Cc1cnc[nH]1)C(=O)O)c1ccccc1` (stereo not drawn) [CBK059018], the “% of control remaining” value rises from 102.025% to 115.17%.

Going from `COc1ccc(NC(=O)CCC(=O)O)c(OC)c1` [CBK265451] to `COc1ccc2[nH]cc(CCNC(=O)CCCN(C)C)c2c1` [CBK116202], the “% of control remaining” value falls from 137.161% to 122.633%.

First: O=C(Cn1cc(Br)ccc1=O)NC1CCCN(Cc2ccccc2)C1 (stereo not drawn) [CBK305668]
Second: O=C(O)C1CCCN(C(=O)NCc2cccc(C(F)(F)F)c2)C1 (stereo not drawn) [CBK161345]
The “% of control remaining” value of the first is lower: 108.009% for the first, 122.516% for the second.

Compared with `COc1cccc2c3c([nH]c12)CCCC3` [CBK000331], `CC1CCn2c3c(c4cccc1c42)CCNCC3` (stereo not drawn) [CBK018012C] is lower in “% of control remaining” value: 124.238% for the first, 53.2544% for the second.

Compared with `CC(C)[C@@H](CO)n1c(=O)[nH]c2ncc(-c3ccc(N4CCOCC4)cc3)nc21` [CBK064770], `COCCn1c(=O)[nH]c2ncc(-c3ccsc3)nc21` [CBK064156] is lower in “% of control remaining” value: 163.069% for the first, 75.3987% for the second.

First: COc1cccc(-c2noc(Cn3cnc4sccc4c3=O)n2)c1 [CBK297127]
Second: COc1cccc(-c2nccnc2C2CCCN(S(=O)(=O)c3ccc(F)cc3)C2)c1 (stereo not drawn) [CBK286138]
The “% of control remaining” value of the first is higher: 159.521% for the first, 119.27% for the second.

Going from `CC1CCN(S(=O)(=O)c2ccc(S(=O)(=O)Nc3ncnn3C)cc2)CC1` [CBK306470] to `O=S(=O)(c1ccc(F)c(Cl)c1)n1ccc2c(N3CCNCC3)nccc21` [CBK059059C], the “% of control remaining” value falls from 91.429% to 82.8587%.

Compared with `CCOC(=O)CSc1nc(C)cc(Oc2ccc(=O)n(C)n2)n1` [CBK269476], `CCn1ncc(S(=O)(=O)Nc2ccc3c(ccn3C)c2)c1C` [CBK282730] is higher in “% of control remaining” value: 101.149% for the first, 126.378% for the second.

Compared with `Cc1cc(C)c2oc(-c3cccc(NC(=O)c4cccc(Cl)c4Cl)c3C)nc2c1` [CBK264005], `COc1cccc2cc(C(=O)NCC3COc4ccccc4O3)oc12` (stereo not drawn) [CBK149791] is lower in “% of control remaining” value: 100% for the first, 93.037% for the second.

First: NNc1nc(-c2ccc(Br)cc2)nc2ccccc12 [CBK262860]
Second: CS(=O)(=O)c1ccc(-c2cnc(N)c3ncccc23)cc1 [CBK067593]
The “% of control remaining” value of the first is lower: 124.114% for the first, 150.52% for the second.

Compared with `O=C(NC1CCCCC1)N[C@H]1[C@H](O)[C@@H](N2CCN(c3ccccc3)CC2)[C@@H]2OC[C@H]1O2` [CBK288822], `O=C(CSc1nnnn1-c1cccnc1)NC1CCCCCC1` [CBK270092] is higher in “% of control remaining” value: 131.044% for the first, 158.872% for the second.

Going from `COC1CCCC(C(=O)N2CCCC2c2nc3ccccc3[nH]2)C1` (stereo not drawn) [CBK284007] to `CC1CCN(C(=O)C2C3CCC4(CC(=O)c5ccccc5O4)C32)CC1` (stereo not drawn) [CBK284872], the “% of control remaining” value rises from 102.523% to 132.644%.

First: O=C(CSCCO)Nc1cccc2ccccc12 [CBK265623]
Second: CCCCOC(=O)c1ccccc1NC(=O)NCCc1cccs1 [CBK043573]
The “% of control remaining” value of the first is higher: 137.586% for the first, 121.781% for the second.

Going from `COc1nc2nonc2nc1OC` [CBK028544] to `CC(=O)Nc1nonc1OCCOc1nonc1NC(C)=O` [CBK020227], the “% of control remaining” value rises from 114.347% to 131.933%.

Compared with `c1cnn(C2CCN(Cc3ccc(Oc4cnccn4)cc3)CC2)c1` [CBK306417], `c1cnn(CC2CCCCN2c2ncnc3sccc23)c1` (stereo not drawn) [CBK304969] is lower in “% of control remaining” value: 138.425% for the first, 128.244% for the second.

First: COCCCNC(=O)Cn1cccc2cc(-c3ccc(F)cc3)nc1-2 [CBK284834]
Second: COc1ccc(OCCNC(=O)c2ccc(C)nc2NCCCn2ccnc2)cc1 [CBK076385]
The “% of control remaining” value of the first is higher: 155.864% for the first, 109.806% for the second.

Compared with `CCOc1cc(OCC)cc(C(=O)N2CCC3(CC2)NC(=O)c2ccc(C)cc2O3)c1` [CBK166215], `Cc1ccc(OCc2cc(C)on2)c(Br)c1` [CBK002837] is lower in “% of control remaining” value: 97.3896% for the first, 96.3389% for the second.

Going from `O=C(Nc1ccc2[nH]ccc2c1)c1ccc(OC(F)(F)F)cc1` [CBK159688] to `COC(=O)CCc1ccc(Oc2ncc(C(F)(F)F)cc2Cl)cc1` [CBK161628], the “% of control remaining” value rises from 95.68% to 97.1424%.

Going from `CC(=O)Nc1cccc(C(=O)N(Cc2ccccc2)Cc2ccccc2)c1` [CBK269295] to `CC(=O)c1cccc(NC(=O)CN(c2cc(Cl)ccc2Cl)S(=O)(=O)c2ccc(C)cc2)c1` [CBK268897], the “% of control remaining” value falls from 93.4152% to 64.4384%.

Going from `Cc1nc2c(C(=O)NCC3OCCO3)cnn2c(C)c1Cc1ccc(Br)cc1` [CBK167467] to `Cc1nc(NC(=N)Nc2ccccc2C(F)(F)F)[nH]c(=O)c1Cc1ccccc1` [CBK269083], the “% of control remaining” value falls from 155.777% to 104.431%.

Going from `COC(=O)c1c(NC(=O)CC2Nc3ccccc3NC2=O)sc2c1CCC2` (stereo not drawn) [CBK269307A] to `O=C(Cn1c(-c2cccs2)cc2cccnc21)NCC1CC1` [CBK282553], the “% of control remaining” value falls from 150.594% to 103.399%.

Going from `O=C(Cc1cccs1)N1CCC(O)(c2cccnc2)CC1` [CBK283501] to `O=C(c1cscn1)N1C2CCC1CC(O)(c1ccco1)C2` (stereo not drawn) [CBK284135], the “% of control remaining” value falls from 116.738% to 94.1603%.

Compared with `CCOc1ccc(S(=O)(=O)NCc2ccncc2)cc1NC(C)=O` [CBK269527], `COc1ccc(CCNC(=O)c2ccccc2N(C)S(C)(=O)=O)cc1` [CBK266833] is lower in “% of control remaining” value: 115.554% for the first, 110.364% for the second.

Compared with `Cc1c(NC2CCN(c3ccc(C#N)cc3)C2=O)cnn1C1CCCC1` (stereo not drawn) [CBK304735], `O=C(c1cc(C2CC2)n[nH]1)N1CCn2cc(C(F)(F)F)nc2C1` [CBK284749] is higher in “% of control remaining” value: 104.724% for the first, 119.88% for the second.

Compared with `COc1cc(C=C2SC(NCC(=O)O)=NC2=O)ccc1OCc1ccc(Cl)cc1Cl` [CBK297555], `CC(C)(CSc1nnc(Nc2ccccc2)s1)NS(=O)(=O)c1ccc(Cl)cc1` [CBK266388] is lower in “% of control remaining” value: 125.455% for the first, 95.022% for the second.

First: FC(F)(F)c1nnc2ccc(-n3ccnc3)nn12 [CBK020041]
Second: O=S(=O)(c1cccc(C(F)(F)F)c1)n1ccc2c(CN3CCC[C@@H]3CO)cccc21 [CBK116167T]
The “% of control remaining” value of the first is higher: 115.171% for the first, 91.5037% for the second.

Going from `N#CCCSc1nnc(-c2cccnc2)n1Cc1ccccc1` [CBK267526] to `O=C(CSc1nc2ccccc2s1)c1cccc([N+](=O)[O-])c1` [CBK262130], the “% of control remaining” value falls from 130.141% to 100%.

Going from `Cc1ccc(S(=O)(=O)Nc2c(C(=O)O)[nH]c3ccccc23)cc1` [CBK049880] to `CCC(C)(C)c1ccc(S(=O)(=O)Nc2n[nH]cc2Br)cc1` [CBK043734], the “% of control remaining” value rises from 101.917% to 112.562%.

Compared with `CN1CCN(c2cc(-c3ccccc3N(C)C)nc3ccnn23)CC1` [CBK037158], `CC(NC(=O)c1ncoc1-c1ccccc1F)c1ccccn1` (stereo not drawn) [CBK282402] is higher in “% of control remaining” value: 98.3838% for the first, 143.742% for the second.

First: C/C(=C\C(=O)NC1CC(C)(C)NC(C)(C)C1)NC1CC(C)(C)NC(C)(C)C1 [CBK261982]
Second: CCC(C)NC(=O)Cn1c(C2CCOCC2)cc2cc(C)cnc21 (stereo not drawn) [CBK284756]
The “% of control remaining” value of the first is lower: 118.258% for the first, 119.029% for the second.

For `CCCNc1cc(C)c(C#N)c2nc3ccccc3n12` [CBK288097], the “% of control remaining” value was 153.893%.
